The experiment concerns Hedgehog pathway signaling (Gli-Luc response, OCT-SHH activated 10 Tl/2 (s12) cells). The experiment is described as follows: Hedgehog signalling inhibition, Gli-Luc reporter assay (Hh Reporter assay). It counts as cell-based. The note with it: numeric values for reference compounds. The method, then:
Example 17: An In Vitro Assay which Determines the Ability of a Test Compound to Inhibit Hedgehog Signalling
Compounds to be tested were dissolved in DMSO to a concentration of 10 mM, and stored at −20° C. To activate the Hedgehog pathway in the assay cells, an octylated (lipid-modified) form of the N-terminal fragment of the Sonic Hedgehog protein (OCT-SHH) was used. This N-terminal SHH fragment is produced bacterially. See, for example, Taylor F R, et al., Biochemistry, 2001, 40: 4359-71.
Compounds were tested in the“Gli-Luc” assay below, using the cell line 10 Tl/2 (s12), wherein the cells contain a Hedgehog-responsive reporter construct utilizing Luciferase as the reporter gene. In this way, Hedgehog pathway signaling activity is measured via the Gli-Luc response.
10 Tl/2 (s12) cells were plated in a 96-well micro-titer plate (MTP) at 20,000 cells/well in full medium [DMEM with 10% FBS]. Then plates were placed in the incubator for incubation overnight (0/N), at 37° C. and 5% CO2. After 24 h, the medium was replaced with Luciferase-assay medium (DMEM with 0.5% FBS). […]
Wells were washed once with assay buffer [PBS+1 mM Mg^2+ and 1 mM Ca^2+]. […] Plates were incubated at room temperature (RT) for about 30 minutes after which the signals were read, again at RT, on a Topcount (Packard). […]
(In general: In a reporter assay the amount or activity of a reporter protein is the signal.)

Results on one compound are retold here after US10214514B2, “Hedgehog antagonists having zinc binding moieties” (Curis, Inc., priority 2011, dated 2019).

By IC50 is commonly meant the concentration needed to halve the response being measured.

`O=C(CCCCCCC(=O)Nc1ccccc1)NO` [SAHA, suberoylanilide hydroxamic acid, reference compound] showed a concentration for half-maximal inhibition (IC50) of 477 nM.
